The target in assay [1] is HaRxL21 (RxL21), yeast two-hybrid fusion (Hyaloperonospora arabidopsidis). The experiment in a line: two-hybrid; Gal4 AD-X (yeast Y8800) and DB-X (Y8930) fusions mated; growth on SC media lacking Leu, Trp and His (3AT for stringency) or also Ade; tested in both directions.
The target in assay [2] is RxL21 with Leu389 mutated to Ala, yeast two-hybrid fusion (Hyaloperonospora arabidopsidis). The assay is described as above.
Assay [3] concerns the target RxL21 with Leu389 mutated to Ile, yeast two-hybrid fusion (Hyaloperonospora arabidopsidis). Described as above.
Assay [4] deals with RxL21ΔN (Δ1–36), yeast two-hybrid fusion (Hyaloperonospora arabidopsidis). The assay is described as above.
Assay [5] concerns the target Myc-RxL21 (Hyaloperonospora arabidopsidis). The experiment in a line: co-IP; transient co-expression in N. benthamiana leaves, RxL21 induced with 30 uM estradiol; sonicated nuclear lysate (10 mM Tris pH 7.5, 150 mM NaCl, 0.5% Igepal, 4 C); anti-c-myc magnetic microbeads, blot with anti-HA.

No constants are given. Whether binding was seen depends on the method and setting. For some of these results: Binding can be weak; no strength is given. Sequences can lack the tags named with a protein. For some of these results: Binding seen in cells or lysates may run through a third protein.

B1: TOPLESS (TPL) of Arabidopsis, yeast two-hybrid fusion (protein, UniProt Q94AI7 1-1131)
chain: MSSLSRELVFLILQFLDEEKFKETVHKLEQESGFFFNMKYFEDEVHNGNWDEVEKYLSGFTKVDDNRYSMKIFFEIRKQKYLEALDKHDRPKAVDILVKDLKVFSTFNEELFKEITQLLTLENFRENEQLSKYGDTKSARAIMLVELKKLIEANPLFRDKLQFPTLRNSRLRTLINQSLNWQHQLCKNPRPNPDIKTLFVDHSCGPPNGARAPSPVNNPLLGGIPKAGGFPPLGAHGPFQPTASPVPTPLAGWMSSPSSVPHPAVSAGAIALGGPSIPAALKHPRTPPTNASLDYPSADSEHVSKRTRPMGISDEVNLGVNMLPMSFSGQAHGHSPAFKAPDDLPKTVARTLSQGSSPMSMDFHPIKQTLLLVGTNVGDIGLWEVGSRERLVQKTFKVWDLSKCSMPLQAALVKEPVVSVNRVIWSPDGSLFGVAYSRHIVQLYSYHGGEDMRQHLEIDAHVGGVNDISFSTPNKQLCVITCGDDKTIKVWDAATGVKRHTFEGHEAPVYSVCPHYKENIQFIFSTALDGKIKAWLYDNMGSRVDYDAPGRWCTTMAYSADGTRLFSCGTSKDGESFIVEWNESEGAVKRTYQGFHKRSLGVVQFDTTKNRYLAAGDDFSIKFWDMDAVQLLTAIDGDGGLQASPRIRFNKEGSLLAVSGNENVIKIMANSDGLRLLHTFENISSESSKPAINSIAAAAAAAATSAGHADRSANVVSIQGMNGDSRNMVDVKPVITEESNDKSKIWKLTEVSEPSQCRSLRLPENLRVAKISRLIFTNSGNAILALASNAIHLLWKWQRNERNATGKATASLPPQQWQPASGILMTNDVAETNPEEAVPCFALSKNDSYVMSASGGKISLFNMMTFKTMATFMPPPPAATFLAFHPQDNNIIAIGMDDSTIQIYNVRVDEVKSKLKGHSKRITGLAFSNVLNVLVSSGADAQLCVWNTDGWEKQRSKVLPLPQGRPNSAPSDTRVQFHQDQAHFLVVHETQLAIYETTKLECMKQWAVRESLAPITHATFSCDSQLVYASFMDATVCVFSSANLRLRCRVNPSAYLPASLSNSNVHPLVIAAHPQEPNMFAVGLSDGGVHIFEPLESEGKWGVAPPAENGSASGAPTAPSVGASASDQPQR
B1: the binding entry was “binds” in assay [1], “no binding” in assay [2], “no binding” in assay [3] and “binds” in assay [4].

B2: TPL-HA (protein, UniProt Q94AI7 1-1131)
chain: B1 chain
With B2, the binding result in assay [5] is “binds”.

B3: TPLΔCTLH (Δ25–91), yeast two-hybrid fusion (protein, UniProt Q94AI7)
chain: MSSLSRELVFLILQFLDEEKFKETKAVDILVKDLKVFSTFNEELFKEITQLLTLENFRENEQLSKYGDTKSARAIMLVELKKLIEANPLFRDKLQFPTLRNSRLRTLINQSLNWQHQLCKNPRPNPDIKTLFVDHSCGPPNGARAPSPVNNPLLGGIPKAGGFPPLGAHGPFQPTASPVPTPLAGWMSSPSSVPHPAVSAGAIALGGPSIPAALKHPRTPPTNASLDYPSADSEHVSKRTRPMGISDEVNLGVNMLPMSFSGQAHGHSPAFKAPDDLPKTVARTLSQGSSPMSMDFHPIKQTLLLVGTNVGDIGLWEVGSRERLVQKTFKVWDLSKCSMPLQAALVKEPVVSVNRVIWSPDGSLFGVAYSRHIVQLYSYHGGEDMRQHLEIDAHVGGVNDISFSTPNKQLCVITCGDDKTIKVWDAATGVKRHTFEGHEAPVYSVCPHYKENIQFIFSTALDGKIKAWLYDNMGSRVDYDAPGRWCTTMAYSADGTRLFSCGTSKDGESFIVEWNESEGAVKRTYQGFHKRSLGVVQFDTTKNRYLAAGDDFSIKFWDMDAVQLLTAIDGDGGLQASPRIRFNKEGSLLAVSGNENVIKIMANSDGLRLLHTFENISSESSKPAINSIAAAAAAAATSAGHADRSANVVSIQGMNGDSRNMVDVKPVITEESNDKSKIWKLTEVSEPSQCRSLRLPENLRVAKISRLIFTNSGNAILALASNAIHLLWKWQRNERNATGKATASLPPQQWQPASGILMTNDVAETNPEEAVPCFALSKNDSYVMSASGGKISLFNMMTFKTMATFMPPPPAATFLAFHPQDNNIIAIGMDDSTIQIYNVRVDEVKSKLKGHSKRITGLAFSNVLNVLVSSGADAQLCVWNTDGWEKQRSKVLPLPQGRPNSAPSDTRVQFHQDQAHFLVVHETQLAIYETTKLECMKQWAVRESLAPITHATFSCDSQLVYASFMDATVCVFSSANLRLRCRVNPSAYLPASLSNSNVHPLVIAAHPQEPNMFAVGLSDGGVHIFEPLESEGKWGVAPPAENGSASGAPTAPSVGASASDQPQR
On to B3, for which, in assay [1], the binding result is on record as “no binding”.

B4: TPLΔCTLH:HA (protein, UniProt Q94AI7)
chain: B3 chain
Take B4: the binding entry in assay [5] is listed as “no binding”.

The values are drawn from article PMC7446885.
